Experimental data: PubChem BioAssay AID1259254 (NCATS, 2017)

Screen: 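Gene knock-downs that lead to re-replication, shown by excess G2 DNA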 (primary screen)
Cells: human HCT116 colorectal cancer cells
Reagent: single siRNA against human genes
Timing: 3 days
Measured: 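Nuclei stained with Hoechst and imaged; cell-cycle phase assigned by DNA content; G2 share scaled per plate, non-targeting siRNA 0%, GMNN siRNA 100%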
Direction: G2 robust z-score and G2 cells, % of GMNN control: higher = more G2 cells, more excess DNA replication
Call rule: 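Active siRNAs have a G2 robust z of 5 or more median absolute deviations over the median, which in these data means about 38% or higher of GMNN control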
This is one part, drawn at random, of about 59,000 reagents. About 1,550 of all reagents (2.6%) were called active. 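G2 share is only a proxy for re-replication; each gene was hit by three separate siRNAs, and active genes were retested.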 Further read-outs or replicates are left out here. Reagent sequences are not shown. Not stated in the record: the amount of reagent.

no.	gene	PubChem SID	G2 robust z-score	G2 cells, % of GMNN control	call
1	AFF3 (GeneID 3899)	SID160776477	-1.11	-4.81	inactive
2	AFF3 (GeneID 3899)	SID160776478	0.787	8.51	inactive
3	AFF3 (GeneID 3899)	SID160776479	-0.00629	2.92	inactive
4	KRI1 (GeneID 65095)	SID160748259	2.02	17.2	inactive
5	KRI1 (GeneID 65095)	SID160748260	0.113	3.77	inactive
6	KRI1 (GeneID 65095)	SID160748261	-0.259	1.15	inactive
7	LOC646853 (GeneID 646853)	SID160725980	-0.47	-0.341	inactive
8	LOC646853 (GeneID 646853)	SID160725981	0.574	7.01	inactive
9	LOC646853 (GeneID 646853)	SID160770035	-1.01	-4.15	inactive
10	HLA-A (GeneID 3105)	SID160731063	-0.717	-2.08	inactive
11	HLA-A (GeneID 3105)	SID160731064	0.958	9.71	inactive
12	HLA-A (GeneID 3105)	SID160774972	-0.236	1.3	inactive
13	ACSL4 (GeneID 2182)	SID160763686	0.875	9.12	inactive
14	ACSL4 (GeneID 2182)	SID160763696	2.18	18.3	inactive
15	ACSL4 (GeneID 2182)	SID160763706	0.0757	3.5	inactive
16	HSCB (GeneID 150274)	SID160758935	2.86	23.1	inactive
17	HSCB (GeneID 150274)	SID160758936	0.468	6.26	inactive
18	HSCB (GeneID 150274)	SID160758937	-0.665	-1.71	inactive

Next part (5 carried over from the part before).
no.	gene	PubChem SID	G2 robust z-score	G2 cells, % of GMNN control	call
14	ACSL4 (GeneID 2182)	SID160763696	2.18	18.3	inactive
15	ACSL4 (GeneID 2182)	SID160763706	0.0757	3.5	inactive
16	HSCB (GeneID 150274)	SID160758935	2.86	23.1	inactive
17	HSCB (GeneID 150274)	SID160758936	0.468	6.26	inactive
18	HSCB (GeneID 150274)	SID160758937	-0.665	-1.71	inactive
19	TMEM54 (GeneID 113452)	SID160754845	0.0539	3.35	inactive
20	TMEM54 (GeneID 113452)	SID160754847	-0.0206	2.82	inactive
21	TMEM54 (GeneID 113452)	SID160754848	-0.7	-1.96	inactive
22	KRTAP15-1 (GeneID 254950)	SID160762241	0.173	4.18	inactive
23	KRTAP15-1 (GeneID 254950)	SID160762242	-0.487	-0.457	inactive
24	KRTAP15-1 (GeneID 254950)	SID160762243	-0.865	-3.12	inactive
25	ZNF251 (GeneID 90987)	SID160724694	-0.522	-0.706	inactive
26	ZNF251 (GeneID 90987)	SID160732134	-0.428	-0.0441	inactive
27	ZNF251 (GeneID 90987)	SID160753860	-0.563	-0.993	inactive
28	OR10A7 (GeneID 121364)	SID160755897	0.429	5.98	inactive
29	OR10A7 (GeneID 121364)	SID160755898	-0.6	-1.25	inactive
30	OR10A7 (GeneID 121364)	SID160755899	0.933	9.53	inactive
31	UCA1 (GeneID 652995)	SID160727133	-0.412	0.0664	inactive
32	UCA1 (GeneID 652995)	SID160734589	1.39	12.8	inactive
33	UCA1 (GeneID 652995)	SID160734590	1.73	15.1	inactive
34	HPF1 (GeneID 54969)	SID160742630	-0.194	1.6	inactive
35	HPF1 (GeneID 54969)	SID160742631	1.58	14.1	inactive
36	HPF1 (GeneID 54969)	SID160742632	-0.483	-0.432	inactive
37	LILRB3 (GeneID 11025)	SID160729773	-0.961	-3.8	inactive
38	LILRB3 (GeneID 11025)	SID160729774	-0.342	0.563	inactive
39	LILRB3 (GeneID 11025)	SID160729775	-1.34	-6.47	inactive
40	OR1S2 (GeneID 219958)	SID160761420	1.51	13.6	inactive
41	OR1S2 (GeneID 219958)	SID160761421	1.56	13.9	inactive
42	OR1S2 (GeneID 219958)	SID160761422	-0.0474	2.63	inactive
43	KPNA6 (GeneID 23633)	SID160736722	-1.06	-4.53	inactive
44	KPNA6 (GeneID 23633)	SID160736723	-0.115	2.16	inactive
45	KPNA6 (GeneID 23633)	SID160736724	4.23	32.7	inactive
46	AGAP11 (GeneID 119385)	SID160755703	-0.795	-2.63	inactive
47	AGAP11 (GeneID 119385)	SID160755704	-0.875	-3.19	inactive
48	AGAP11 (GeneID 119385)	SID160755706	-1.05	-4.44	inactive
